These are yes or no findings as the source states them, for the method shown. Binding seen in cells or lysates may run through a third protein. Some entries that bind do so weakly or less than the wild type.
Biological target: T1, CD81 (human (endogenous in NCI-H460)) (UniProt P60033)
T1 sequence: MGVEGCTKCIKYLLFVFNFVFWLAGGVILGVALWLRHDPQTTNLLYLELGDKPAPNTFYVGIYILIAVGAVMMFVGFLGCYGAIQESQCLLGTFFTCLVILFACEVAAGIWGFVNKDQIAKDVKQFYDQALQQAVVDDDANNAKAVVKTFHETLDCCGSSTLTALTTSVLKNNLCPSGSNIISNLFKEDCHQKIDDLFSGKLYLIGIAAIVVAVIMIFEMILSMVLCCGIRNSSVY
Experiment: co-IP; NCI-H460 cells lysed under non-denaturing conditions (1% Triton X-100, 1 h at 4°C); immunoprecipitation with anti-CD9 or anti-CD81 and protein G-Sepharose; blot with 229T mAb

B1: partner 1 of CD9 (CD9P-1) (protein, UniProt Q9P2B2 26-879)
chain: VPTATLVRVVGTELVIPCNVSDYDGPSEQNFDWSFSSLGSSFVELASTWEVGFPAQLYQERLQRGEILLRRTANDAVELHIKNVQPSDQGHYKCSTPSTDATVQGNYEDTVQVKVLADSLHVGPSARPPPSLSLREGEPFELRCTAASASPLHTHLALLWEVHRGPARRSVLALTHEGRFHPGLGYEQRYHSGDVRLDTVGSDAYRLSVSRALSADQGSYRCIVSEWIAEQGNWQEIQEKAVEVATVVIQPSVLRAAVPKNVSVAEGKELDLTCNITTDRADDVRPEVTWSFSRMPDSTLPGSRVLARLDRDSLVHSSPHVALSHVDARSYHLLVRDVSKENSGYYYCHVSLWAPGHNRSWHKVAEAVSSPAGVGVTWLEPDYQVYLNASKVPGFADDPTELACRVVDTKSGEANVRFTVSWYYRMNRRSDNVVTSELLAVMDGDWTLKYGERSKQRAQDGDFIFSKEHTDTFNFRIQRTTEEDRGNYYCVVSAWTKQRNNSWVKSKDVFSKPVNIFWALEDSVLVVKARQPKPFFAAGNTFEMTCKVSSKNIKSPRYSVLIMAEKPVGDLSSPNETKYIISLDQDSVVKLENWTDASRVDGVVLEKVQEDEFRYRMYQTQVSDAGLYRCMVTAWSPVRGSLWREAATSLSNPIEIDFQTSGPIFNASVHSDTPSVIRGDLIKLFCIITVEGAALDPDDMAFDVSWFAVHSFGLDKAPVLLSSLDRKGIVTTSRRDWKSDLSLERVSVLEFLLQVHGSEDQDFGNYYCSVTPWVKSPTGSWQKEAEIHSKPVFITVKMDVLNAFKYPLLIGVGLSTVIGLLSCLIGYCSSHWCCKKEVQETRRERRRLMSMEMD
B1 was tested. Which binding did it give?
The binding was “binds”.

— article PMC3049554
